# Earlier results, collected in patent US11352624B2, “Reducing nonsense-mediated MRNA decay” (Cold Spring Harbor Laboratory, priority 2013, dated 2022).
# Some entries share one result that the patent states for a list of compounds. For at least one compound, name, drawing or mass did not settle the structure.
# Conditions: cited from earlier work
row,Compound,reduction in cellular toxicity compared to the classical aminoglycosides [fold]
1,NCC[C@H](O)C(=O)N[C@@H]1CC(N)[C@@H](O[C@H]2OC(CO)[C@@H](O)[C@H](O)C2N)[C@H](O[C@@H]2O[C@H](CN)[C@H](O)C2O)C1O (stereo partly drawn) [NB54],> 10
2,C[C@@H](O)C1O[C@H](O[C@@H]2C(N)C[C@@H](NC(=O)[C@@H](O)CCN)[C@@H](O)C2O[C@@H]2O[C@H](CN)[C@H](O)C2O)[C@@H](N)C(O)[C@@H]1O (stereo partly drawn) [NB84],> 10
3,NC[C@H]1O[C@@H](OC2C(O)[C@H](N)CC(N)[C@H]2O[C@H]2OC(CO)[C@@H](O)C(O)C2N)C(O)C1O (stereo partly drawn) [NB30],> 10
